Measured values: patent publication US20040157280A1, “Antibody mediated ozone generation” (priority 2001, published 2004)

Experiment: Oxidation of indigo carmine 1 and ^18O incorporation into 2 by different reactive oxygen species
Format: physicochemical

## O=[O+][O-] [Clone O3, ozone]
H2^18O (>95%) PB
  ^18O incorporation into 2: Yes
Oxidant added to indigo carmine 1 (1 mM), PB pH 7.4
  Reaction to form 2: yes
